# Reference: PubChem BioAssay AID256 (DTP/NCI, 2004)
# The list is a part of this screen's results and no random one: it gathers tests that were run many times, whatever their T/C, doses with no T/C, and many T/C values between a quarter and a half above the control. Other doses and runs of a compound stand elsewhere. T/C: endpoint of the treated group in % of that of the vehicle group. Some doses have a count of surviving animals in place of a T/C: the source files T/C as zero there, which appears to mark a toxic dose or a test without result, not a measured value. Some doses without a T/C left all or most animals alive at the check, yet need not have been tolerated: survival well below the control is almost never listed, so the zero probably covers shortened survival too. Survivors were counted at the toxicity check, usually on the fifth day, unless a day is given; later deaths do not show. Schedule codes are those of the source, read here as Q, the interval in days (D) or hours (H), X, the number of doses. Some doses were run more than once; the values are given in rising order. Some structures stand for samples that the source files as different forms (salt, stereo form or complex); doses refer to the form tested. For survival time, the PubChem record calls one and a half times the control and up active, and a quarter to a half above the control has no call in these data; cut-offs in other NCI protocols can differ. Some T/C values are followed by the survivors on the day toxicity was checked, most often the fifth; without a count, all were alive then.
# Test system: CD2F1 mice, L1210 leukemia ip, survival T/C
# Assay: NCI In Vivo Anticancer Drug Screen. Data for tumor model L1210 Leukemia (intraperitoneal) in CD2F1 (CDF1) mice
# Details: higher T/C = longer survival
# Method in brief: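 Ratio T/C, where T is the treated-group value and C the vehicle-dosed control value, from mice implanted with a transplantable tumor.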
# [1] = T/C endpoint: mean survival time, dose: 100.0 mg/kg/injection, schedule: Q04DX003 (ip), vehicle: saline with Tween-80
# [2] = T/C endpoint: mean survival time, dose: 200.0 mg/kg/injection, schedule: Q04DX003 (ip), vehicle: saline with Tween-80
# [3] = T/C endpoint: mean survival time, dose: 400.0 mg/kg/injection, schedule: Q04DX003 (ip), vehicle: saline with Tween-80
# [4] = T/C endpoint: mean survival time, dose: 200.0 mg/kg/injection, schedule: Q01DX009 (ip), vehicle: saline with Tween-80
# [5] = T/C endpoint: mean survival time, dose: 400.0 mg/kg/injection, schedule: Q04DX002 (ip), vehicle: saline with Tween-80
# [6] = T/C endpoint: mean survival time, dose: 400.0 mg/kg/injection, schedule: Q01DX009 (ip), vehicle: saline with Tween-80
# [7] = T/C endpoint: mean survival time, dose: 100.0 mg/kg/injection, schedule: Q01DX009 (ip), vehicle: saline with Tween-80
# [8] = T/C endpoint: mean survival time, dose: 2.5 mg/kg/injection, schedule: Q01DX009 (ip), vehicle: saline
# [9] = T/C endpoint: mean survival time, dose: 200.0 mg/kg/injection, schedule: Q01DX009 (ip), vehicle: Klucel (hydroxypropylcellulose) (HPC)
# [10] = T/C endpoint: mean survival time, dose: 400.0 mg/kg/injection, schedule: Q01DX009 (ip), vehicle: Klucel (hydroxypropylcellulose) (HPC)
smiles,measurement,setting,value
Nc1nc(=O)c2[nH]cnc2n1O,survivor count,[1],1 of 6
same,survivor count,[2],1 of 6
same,survivor count,[3],0 of 6
COc1ccc2c(c1OC)C1C3CC=CC3C2C2=[N+]1CCc1cc3c(cc12)OCO3 (stereo not drawn),survivor count,"T/C endpoint: mean survival time, dose: 50.0 mg/kg/injection, schedule: Q04DX003 (ip), vehicle: saline",5 of 6
same,survivor count,"T/C endpoint: mean survival time, dose: 200.0 mg/kg/injection, schedule: Q04DX003 (ip), vehicle: saline",0 of 6
same,survivor count,"T/C endpoint: mean survival time, dose: 400.0 mg/kg/injection, schedule: Q04DX003 (ip), vehicle: saline",0 of 6
O=C(NO)Nc1ccc(Cl)cc1,survivor count,"T/C endpoint: mean survival time, dose: 140.0 mg/kg/injection, schedule: Q03HX024 (ip), vehicle: saline with Tween-80",7 of 8
same,survivor count,"T/C endpoint: mean survival time, dose: 210.0 mg/kg/injection, schedule: Q03HX024 (ip), vehicle: saline with Tween-80",5 of 8
COc1cc(C2c3cc4c(cc3C(O)C(CO)C2CO)OCO4)cc(OC)c1OC (stereo not drawn),T/C,[4],131 % of control
OC1(c2cccc(C(F)(F)F)c2)CCN(C2CC2c2ccccc2)CC1 (stereo not drawn),survivor count,[5],1 of 3
Cn1c(C[N+](C)(C)C)cc2ccccc21,survivor count,"T/C endpoint: mean survival time, dose: 200.0 mg/kg/injection, schedule: Q01DX009 (ip), vehicle: saline",1 of 6
CCCC1NNC(CCC)NN1 (stereo not drawn),survivor count,"T/C endpoint: mean survival time, dose: 150.0 mg/kg/injection, schedule: Q01DX001 (ip), vehicle: saline",0 of 6
same,survivor count,"T/C endpoint: mean survival time, dose: 300.0 mg/kg/injection, schedule: Q01DX001 (ip), vehicle: saline",0 of 6
CCCCCCCCCCCC(=O)NC(=S)Nc1cc(Cl)ccc1Cl,survivor count,[2],6 of 6
same,survivor count,"T/C endpoint: mean survival time, dose: 400.0 mg/kg/injection, schedule: Q01DX001 (ip), vehicle: saline with Tween-80",5 of 6
same,survivor count,[6],2 of 3 and 5 of 6
CC(C)(C)c1ccc(-n2cnc3c(=O)[nH]c(N)nc32)cc1,survivor count,"T/C endpoint: mean survival time, dose: 200.0 mg/kg/injection, schedule: Q04DX002 (ip), vehicle: saline with Tween-80",3 of 3
C(/C=C\c1ccccc1)=C(/C=C/c1ccccc1)/C=C/c1ccccc1,survivor count,"T/C endpoint: mean survival time, dose: 100.0 mg/kg/injection, schedule: Q01DX001 (ip), vehicle: saline with Tween-80",6 of 6
O=C(O)C(=O)O.[NH-]C1CCCCC1C1CCCCC1[NH-].[Pt+2] (stereo not drawn),T/C,"T/C endpoint: mean survival time, dose: 12.5 mg/kg/injection, schedule: Q04DX003 (ip), vehicle: distilled water + Tween-80",125 % of control
same,survivor count,"T/C endpoint: mean survival time, dose: 100.0 mg/kg/injection, schedule: Q04DX003 (ip), vehicle: distilled water + Tween-80",3 of 6
same,survivor count,"T/C endpoint: mean survival time, dose: 200.0 mg/kg/injection, schedule: Q04DX003 (ip), vehicle: distilled water + Tween-80",0 of 6
COc1ccc2c(ccc[n+]2C)c1,T/C,"T/C endpoint: mean survival time, dose: 33.0 mg/kg/injection, schedule: Q01DX009 (ip), vehicle: saline",127 % of control [5 of 6 alive]
same,T/C,"T/C endpoint: mean survival time, dose: 50.0 mg/kg/injection, schedule: Q01DX009 (ip), vehicle: alcohol",131 % of control
same,survivor count,"T/C endpoint: mean survival time, dose: 50.0 mg/kg/injection, schedule: Q01DX009 (ip), vehicle: saline",2 of 6
same,survivor count,"T/C endpoint: mean survival time, dose: 75.0 mg/kg/injection, schedule: Q01DX009 (ip), vehicle: saline",0 of 6
same,survivor count,[1],0 of 6
same,survivor count,[2],0 of 6
same,survivor count,[3],0 of 6
CCCCCCCCCCCCC[n+]1ccc(C#N)cc1,survivor count,"T/C endpoint: mean survival time, dose: 30.0 mg/kg/injection, schedule: Q01DX009 (ip), vehicle: saline",2 of 6
O=c1ccc2nc3ccccc3sc-2c1,survivor count,[7],6 of 6
same,survivor count,[4],2 of 6
C/C=C(\C)c1cc(=O)c2c(C)cc3c(c2o1)C(=O)c1c(O)c(C2CC(C)(N(C)C)C(O)C(C)O2)cc(C2CC(N(C)C)C(O)C(C)O2)c1C3=O (stereo not drawn),T/C,[8],127 % of control
same,survivor count,[8],5 of 6
same,survivor count,"T/C endpoint: mean survival time, dose: 5.0 mg/kg/injection, schedule: Q01DX009 (ip), vehicle: saline",0 of 6 and 4 of 6
same,survivor count,"T/C endpoint: mean survival time, dose: 6.25 mg/kg/injection, schedule: Q01DX009 (ip), vehicle: saline with Tween-80",5 of 6
same,survivor count,"T/C endpoint: mean survival time, dose: 12.5 mg/kg/injection, schedule: Q01DX009 (ip), vehicle: saline with Tween-80",3 of 6
same,survivor count,"T/C endpoint: mean survival time, dose: 25.0 mg/kg/injection, schedule: Q01DX009 (ip), vehicle: saline with Tween-80",0 of 6
same,T/C,"T/C endpoint: mean survival time, dose: 312.5 micrograms/kg/injection, schedule: Q01DX009 (ip), vehicle: saline",129 % of control
same,survivor count,"T/C endpoint: median survival time, dose: 25.0 mg/kg/injection, schedule: Q01DX001 (ip), vehicle: saline with Tween-80",0 of 3
same,survivor count,"T/C endpoint: median survival time, dose: 25.0 mg/kg/injection, schedule: Q04DX003 (ip), vehicle: saline with Tween-80",1 of 3
same,survivor count,"T/C endpoint: median survival time, dose: 50.0 mg/kg/injection, schedule: Q01DX001 (ip), vehicle: saline with Tween-80",0 of 3
same,survivor count,"T/C endpoint: median survival time, dose: 50.0 mg/kg/injection, schedule: Q04DX003 (ip), vehicle: saline with Tween-80",0 of 3
same,survivor count,"T/C endpoint: median survival time, dose: 100.0 mg/kg/injection, schedule: Q01DX001 (ip), vehicle: saline with Tween-80",0 of 3
same,survivor count,"T/C endpoint: median survival time, dose: 100.0 mg/kg/injection, schedule: Q04DX003 (ip), vehicle: saline with Tween-80",0 of 3
same,survivor count,"T/C endpoint: median survival time, dose: 200.0 mg/kg/injection, schedule: Q01DX001 (ip), vehicle: saline with Tween-80",0 of 3
same,survivor count,"T/C endpoint: median survival time, dose: 200.0 mg/kg/injection, schedule: Q04DX003 (ip), vehicle: saline with Tween-80",0 of 3
CC1(CC(C)(C)C2CCCCC2)OCCO1,survivor count,[9],6 of 6
same,survivor count,[10],4 of 6
CCOC(=O)c1sc(=S)[nH]c1C,survivor count,[7],6 of 6
CCO/C=C1\SC(=S)N(Cc2ccccc2)C1=O,survivor count,"T/C endpoint: mean survival time, dose: 100.0 mg/kg/injection, schedule: Q01DX009 (ip), vehicle: other",6 of 6
same,survivor count,[4],5 of 6
same,survivor count,[6],1 of 6
CCN(CC)C(=O)Nc1cc(Cl)ccc1Cl,survivor count,[5],3 of 3
O=C(Nc1ccccc1)c1ccc(Cl)c([N+](=O)[O-])c1,survivor count,[2],3 of 6
same,survivor count,[3],3 of 6
CC(=O)C(CN(C)C)C(C)=O,survivor count,"T/C endpoint: mean survival time, dose: 300.0 mg/kg/injection, schedule: Q01DX001 (ip), vehicle: other",2 of 6
Nc1nc(N)c2cc(CNc3ccc(C(=O)NC(CC(=O)O)CC(=O)O)cc3)cnc2n1,T/C,[9],142 % of control
same,survivor count,[10],1 of 6
Cc1nc2ccccc2cc1C[N+]12CN3CN(CN(C3)C1)C2,survivor count,[7],4 of 6
same,survivor count,[1],1 of 6
same,survivor count,"T/C endpoint: mean survival time, dose: 200.0 mg/kg/injection, schedule: Q01DX001 (ip), vehicle: saline",0 of 6
same,survivor count,"T/C endpoint: mean survival time, dose: 400.0 mg/kg/injection, schedule: Q01DX001 (ip), vehicle: saline",0 of 6
CSC1SCC2C(=O)N(C)C(C(C)C)C(=O)OCC(NC(=O)c3cnc4ccccc4n3)C(=O)NC(C)C(=O)N(C)C1C(=O)N(C)C(C(C)C)C(=O)OCC(NC(=O)c1cnc3ccccc3n1)C(=O)NC(C)C(=O)N2C (stereo not drawn),T/C,"T/C endpoint: mean survival time, dose: 64.0 micrograms/kg/injection, schedule: Q01DX009 (ip), vehicle: saline",129 % of control [5 of 6 alive]
same,T/C,"T/C endpoint: mean survival time, dose: 96.0 micrograms/kg/injection, schedule: Q01DX009 (ip), vehicle: saline",132 % of control
same,T/C,"T/C endpoint: mean survival time, dose: 128.0 micrograms/kg/injection, schedule: Q01DX009 (ip), vehicle: saline",129 % of control
same,T/C,"T/C endpoint: median survival time, dose: 67.0 micrograms/kg/injection, schedule: Q01DX005 (ip), vehicle: saline",137 % of control
same,T/C,"T/C endpoint: median survival time, dose: 100.0 micrograms/kg/injection, schedule: Q01DX005 (ip), vehicle: saline, evaluated on day 30",143 % of control
same,T/C,"T/C endpoint: median survival time, dose: 100.0 micrograms/kg/injection, schedule: Q01DX005 (ip), vehicle: saline, evaluated on day 60",125 % of control
